The results in this text go back to publication PMC6166128.

Protein sequences, listed by entry. Tags and fused reporters are not part of them. Lines headed by an entry give the natural chain unless they say otherwise; changes in a name come on top.
UniProt P32558: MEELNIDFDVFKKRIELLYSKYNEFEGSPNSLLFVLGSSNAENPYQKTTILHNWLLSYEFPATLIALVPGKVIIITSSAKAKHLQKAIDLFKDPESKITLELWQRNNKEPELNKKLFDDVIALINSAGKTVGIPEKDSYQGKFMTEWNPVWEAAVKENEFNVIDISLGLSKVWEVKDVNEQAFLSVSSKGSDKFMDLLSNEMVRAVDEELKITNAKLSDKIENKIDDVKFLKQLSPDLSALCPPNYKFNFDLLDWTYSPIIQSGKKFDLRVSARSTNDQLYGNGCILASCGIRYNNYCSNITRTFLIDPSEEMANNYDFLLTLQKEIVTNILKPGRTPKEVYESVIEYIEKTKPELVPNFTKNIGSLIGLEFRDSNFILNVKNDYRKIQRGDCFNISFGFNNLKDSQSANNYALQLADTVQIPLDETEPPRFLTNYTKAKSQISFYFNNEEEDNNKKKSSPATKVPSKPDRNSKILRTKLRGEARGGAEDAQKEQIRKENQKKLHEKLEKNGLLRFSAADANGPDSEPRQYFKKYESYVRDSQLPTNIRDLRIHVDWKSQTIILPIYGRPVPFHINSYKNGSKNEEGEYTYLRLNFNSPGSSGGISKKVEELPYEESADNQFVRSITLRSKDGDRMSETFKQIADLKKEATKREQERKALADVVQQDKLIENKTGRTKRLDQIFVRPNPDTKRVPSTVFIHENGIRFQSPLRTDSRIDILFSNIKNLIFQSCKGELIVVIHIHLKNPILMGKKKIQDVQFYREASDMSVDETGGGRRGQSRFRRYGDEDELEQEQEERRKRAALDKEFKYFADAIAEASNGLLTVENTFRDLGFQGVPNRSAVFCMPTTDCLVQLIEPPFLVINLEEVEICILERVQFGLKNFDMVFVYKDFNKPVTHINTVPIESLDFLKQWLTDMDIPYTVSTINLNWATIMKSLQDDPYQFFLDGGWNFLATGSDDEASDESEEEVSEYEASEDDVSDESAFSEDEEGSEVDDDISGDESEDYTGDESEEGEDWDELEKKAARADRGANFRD

The target in assay [1] is T1, Pol1NT-2A2 (Pol1 1-351 with F58A and D62A, fused to Protein A) (S. cerevisiae) (UniProt P13382).
T1 sequence: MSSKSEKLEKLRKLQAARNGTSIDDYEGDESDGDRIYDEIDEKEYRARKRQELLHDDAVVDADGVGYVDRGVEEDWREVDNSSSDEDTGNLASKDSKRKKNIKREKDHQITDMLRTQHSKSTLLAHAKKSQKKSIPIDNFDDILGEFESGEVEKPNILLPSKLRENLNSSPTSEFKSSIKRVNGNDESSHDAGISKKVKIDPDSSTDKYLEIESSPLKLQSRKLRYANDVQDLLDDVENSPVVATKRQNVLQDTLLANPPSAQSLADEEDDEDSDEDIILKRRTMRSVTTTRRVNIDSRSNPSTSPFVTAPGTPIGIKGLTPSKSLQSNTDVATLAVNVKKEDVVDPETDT
Kind of assay: co-IP; Protein A-tagged tails isolated on IgG-coated magnetic beads from yeast cell extracts after DNase treatment (Universal nuclease 1,600 U/ml, 30 min, 4°C) to release histone complexes from chromatin; 100 mM Hepes-KOH pH 7.9, 100 mM KOAc; immunoblot; also in tel1∆ cells (Fig EV4B). (Immunoblotting shows a protein as a band on a membrane.)

In assay [2] the target is T2, Pol1NT-2A (Pol1 1-351 with F58 and Y67 mutated, fused to Protein A) (S. cerevisiae) (UniProt P13382).
T2 sequence: T1 sequence with A62D, Y67A
The assay is described as above.

Changes are numbered by the printed parent chain. Results are given in words; binding and its absence hold for the method and conditions named. In cells and extracts the contact can be indirect. Sequences can lack the tags named with a protein.

With “FACT (histone chaperone; Spt16 and Pob3), budding yeast (from UniProt P32558 1-1035; Q04636 1-552) (complex)”, the binding result in assay [1] and in assay [2] was “no binding” throughout.
